PubChem BioAssay AID1259254 – NCATS – 2017
This is a random part of about 59,000 reagents. About 1,550 of all reagents (2.6%) were called active. 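G2 share is only a proxy for re-replication; each gene was hit by three separate siRNAs, and active genes were retested.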 The numbers tell different reagents against one gene apart. Not all columns of the deposit are shown. No sequences are given here. Not stated in the record: the amount of reagent.

Test: 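Genome-wide screen for genes that prevent DNA re-replication in cancer cells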 (primary screen)
Cell system: human HCT116 colorectal cancer cells
Reagent: single siRNA against human genes
Timing: 3 days
Read-out: 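Nuclei stained with Hoechst and imaged; cell-cycle phase assigned by DNA content; G2 share scaled per plate, non-targeting siRNA 0%, GMNN siRNA 100%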
Scale: G2 robust z-score: higher = more G2 cells, more excess DNA replication
Rule for the call: 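Active siRNAs have a G2 robust z of 5 or more median absolute deviations over the median, which in these data means about 38% or higher of GMNN control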

HTR2A (5-hydroxytryptamine receptor 2A) #1: G2 robust z-score = 0.0777; outcome = inactive
HTR2A (5-hydroxytryptamine receptor 2A) #2: G2 robust z-score = 0.602; outcome = inactive
HTR2A (5-hydroxytryptamine receptor 2A) #3: G2 robust z-score = -0.559; outcome = inactive
GTF2E2 (general transcription factor IIE subunit 2) #1: G2 robust z-score = 0.0704; outcome = inactive
GTF2E2 (general transcription factor IIE subunit 2) #2: G2 robust z-score = -0.177; outcome = inactive
GTF2E2 (general transcription factor IIE subunit 2) #3: G2 robust z-score = -0.27; outcome = inactive
LRRC39 (leucine rich repeat containing 39) #1: G2 robust z-score = 0.18; outcome = inactive
LRRC39 (leucine rich repeat containing 39) #2: G2 robust z-score = -0.508; outcome = inactive
LRRC39 (leucine rich repeat containing 39) #3: G2 robust z-score = -0.376; outcome = inactive
RHBDL1 (rhomboid like 1) #1: G2 robust z-score = 0.175; outcome = inactive
RHBDL1 (rhomboid like 1) #2: G2 robust z-score = 3.4; outcome = inactive
RHBDL1 (rhomboid like 1) #3: G2 robust z-score = 0.286; outcome = inactive
NACA (nascent polypeptide associated complex subunit alpha) #1: G2 robust z-score = 1.88; outcome = inactive
NACA (nascent polypeptide associated complex subunit alpha) #2: G2 robust z-score = 0.572; outcome = inactive
NACA (nascent polypeptide associated complex subunit alpha) #3: G2 robust z-score = 1.61; outcome = inactive
HS2ST1 (heparan sulfate 2-O-sulfotransferase 1) #1: G2 robust z-score = 0.468; outcome = inactive
HS2ST1 (heparan sulfate 2-O-sulfotransferase 1) #2: G2 robust z-score = -0.0703; outcome = inactive
HS2ST1 (heparan sulfate 2-O-sulfotransferase 1) #3: G2 robust z-score = -0.377; outcome = inactive
